Results are given in words; binding and its absence hold for the method and conditions named. In cells and extracts the contact can be indirect. Some results given as binding are weak or reduced against the parent protein; the word gives no strength.
How the values were obtained:
[1] = molecular target: SIRT1 (human (endogenous in HEK 293T and MCF-7)) (UniProt Q96EB6); test: co-IP; MCF-7 lysate (IP lysis buffer), precleared with IgG and Protein A/G agarose; precipitated with SIRT1 (IF3) mouse mAb, 4 C; Western blot; IgG as negative control
[2] = molecular target: SIRT1 (human (endogenous in HEK 293T and MCF-7)) (UniProt Q96EB6); test: co-IP; HEK 293T lysate (IP lysis buffer), precleared with IgG and Protein A/G agarose; precipitated with SIRT1 (IF3) mouse mAb, 4 C; Western blot; IgG as negative control

Chains of the proteins cited; added tags and fusions are not shown.
UniProt Q96EB6: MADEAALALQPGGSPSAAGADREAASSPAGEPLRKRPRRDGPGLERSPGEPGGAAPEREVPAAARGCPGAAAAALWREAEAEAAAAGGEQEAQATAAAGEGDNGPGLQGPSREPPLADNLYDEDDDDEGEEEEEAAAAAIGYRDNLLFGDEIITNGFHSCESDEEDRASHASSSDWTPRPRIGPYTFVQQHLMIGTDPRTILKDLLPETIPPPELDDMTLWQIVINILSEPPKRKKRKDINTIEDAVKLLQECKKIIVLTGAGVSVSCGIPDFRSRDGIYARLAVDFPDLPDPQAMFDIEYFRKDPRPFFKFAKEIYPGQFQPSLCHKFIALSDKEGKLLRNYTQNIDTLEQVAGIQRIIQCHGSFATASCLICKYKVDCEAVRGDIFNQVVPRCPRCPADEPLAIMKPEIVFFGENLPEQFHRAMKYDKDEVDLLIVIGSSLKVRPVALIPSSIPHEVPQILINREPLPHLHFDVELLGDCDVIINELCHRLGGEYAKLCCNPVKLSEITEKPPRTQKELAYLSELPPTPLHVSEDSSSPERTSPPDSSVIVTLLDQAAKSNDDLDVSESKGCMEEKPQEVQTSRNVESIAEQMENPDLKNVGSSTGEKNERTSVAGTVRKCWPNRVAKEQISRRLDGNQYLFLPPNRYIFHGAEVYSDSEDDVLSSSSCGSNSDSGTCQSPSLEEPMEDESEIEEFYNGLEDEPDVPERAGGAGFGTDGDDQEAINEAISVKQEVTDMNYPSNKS

- binding [1]: binds
- binding [2]: binds
Substance: Ras-GTPase-activating protein SH3 domain-binding protein 1 (G3BP1) (from UniProt Q13283-1 1-466)

— PMC9774693
